Three substances from publication PMC3234234, “A Host Small GTP-binding Protein ARL8 Plays Crucial Roles in Tobamovirus RNA Replication” (PLoS Pathogens, 2011) can be followed below.

These are yes or no findings as the source states them, for the method shown. In cells and extracts the contact can be indirect. A result given as binding can be weak or reduced; the word gives no strength. Sequences can lack the tags named with a protein.

The assay addresses T1, C-terminally FLAG-StrepII-tagged NtARL8a (NtARL8a-FS) (Nicotiana tabacum) (UniProt H1AD87).
T1 sequence: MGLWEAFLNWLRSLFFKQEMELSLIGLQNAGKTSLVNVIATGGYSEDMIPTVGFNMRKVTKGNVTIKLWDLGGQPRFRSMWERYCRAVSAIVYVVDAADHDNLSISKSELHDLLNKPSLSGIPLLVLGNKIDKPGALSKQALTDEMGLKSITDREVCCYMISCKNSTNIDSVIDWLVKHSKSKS
As to the kind of experiment: co-IP; NtARL8a-FS immunopurified with anti-FLAG antibody from LPC-solubilized P15 membranes of NtARL8a-FS-expressing BY-2 cells, uninfected or ToMV-GFP-infected; immunoblots for ARL8, TOM1 and 130K/180K.
For the substance “ToMV 130K replication protein (Tomato mosaic virus)”, the binding entry was “binds”.
In the case of “ToMV 180K replication protein (untagged) (Tomato mosaic virus)”, the binding result is on record as “binds”.
For the substance “NtTOM1 (Nicotiana tabacum TOM1), endogenous”, the binding result was “binds”.
